± gives the standard deviation of the averaged measurements. This is one part of the list.
Compound: Nc1nc2c(ncn2[C@@H]2O[C@H](COP(=O)(O)OP(=O)(O)OP(=O)(O)O)[C@@H](O)[C@H]2O)c(=O)[nH]1 [guanosine triphosphate]
Assay: NP40-soluble protein abundance relative to vehicle (solubility fold change) (ratio); higher = more soluble protein in presence of GTP
Experimental: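 Solubility proteome profiling in Jurkat crude lysate. Lysate was treated with Mg-GTP (0.1-10 mM) for 10 min at room temperature and 3 min at 37 °C, then solubilised with 0.8% NP40 and benzonase, followed by ultracentrifugation. Proteins were quantified by TMT10 LC-MS/MS; the value is the NP40-soluble abundance relative to the NP40-processed vehicle, from 3 independent experiments.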

Protein sequences, listed by entry. Tags and fused reporters are not part of them. Lines headed by an entry give the natural chain unless they say otherwise; changes in a name come on top.
UniProt Q9Y618, whole entry: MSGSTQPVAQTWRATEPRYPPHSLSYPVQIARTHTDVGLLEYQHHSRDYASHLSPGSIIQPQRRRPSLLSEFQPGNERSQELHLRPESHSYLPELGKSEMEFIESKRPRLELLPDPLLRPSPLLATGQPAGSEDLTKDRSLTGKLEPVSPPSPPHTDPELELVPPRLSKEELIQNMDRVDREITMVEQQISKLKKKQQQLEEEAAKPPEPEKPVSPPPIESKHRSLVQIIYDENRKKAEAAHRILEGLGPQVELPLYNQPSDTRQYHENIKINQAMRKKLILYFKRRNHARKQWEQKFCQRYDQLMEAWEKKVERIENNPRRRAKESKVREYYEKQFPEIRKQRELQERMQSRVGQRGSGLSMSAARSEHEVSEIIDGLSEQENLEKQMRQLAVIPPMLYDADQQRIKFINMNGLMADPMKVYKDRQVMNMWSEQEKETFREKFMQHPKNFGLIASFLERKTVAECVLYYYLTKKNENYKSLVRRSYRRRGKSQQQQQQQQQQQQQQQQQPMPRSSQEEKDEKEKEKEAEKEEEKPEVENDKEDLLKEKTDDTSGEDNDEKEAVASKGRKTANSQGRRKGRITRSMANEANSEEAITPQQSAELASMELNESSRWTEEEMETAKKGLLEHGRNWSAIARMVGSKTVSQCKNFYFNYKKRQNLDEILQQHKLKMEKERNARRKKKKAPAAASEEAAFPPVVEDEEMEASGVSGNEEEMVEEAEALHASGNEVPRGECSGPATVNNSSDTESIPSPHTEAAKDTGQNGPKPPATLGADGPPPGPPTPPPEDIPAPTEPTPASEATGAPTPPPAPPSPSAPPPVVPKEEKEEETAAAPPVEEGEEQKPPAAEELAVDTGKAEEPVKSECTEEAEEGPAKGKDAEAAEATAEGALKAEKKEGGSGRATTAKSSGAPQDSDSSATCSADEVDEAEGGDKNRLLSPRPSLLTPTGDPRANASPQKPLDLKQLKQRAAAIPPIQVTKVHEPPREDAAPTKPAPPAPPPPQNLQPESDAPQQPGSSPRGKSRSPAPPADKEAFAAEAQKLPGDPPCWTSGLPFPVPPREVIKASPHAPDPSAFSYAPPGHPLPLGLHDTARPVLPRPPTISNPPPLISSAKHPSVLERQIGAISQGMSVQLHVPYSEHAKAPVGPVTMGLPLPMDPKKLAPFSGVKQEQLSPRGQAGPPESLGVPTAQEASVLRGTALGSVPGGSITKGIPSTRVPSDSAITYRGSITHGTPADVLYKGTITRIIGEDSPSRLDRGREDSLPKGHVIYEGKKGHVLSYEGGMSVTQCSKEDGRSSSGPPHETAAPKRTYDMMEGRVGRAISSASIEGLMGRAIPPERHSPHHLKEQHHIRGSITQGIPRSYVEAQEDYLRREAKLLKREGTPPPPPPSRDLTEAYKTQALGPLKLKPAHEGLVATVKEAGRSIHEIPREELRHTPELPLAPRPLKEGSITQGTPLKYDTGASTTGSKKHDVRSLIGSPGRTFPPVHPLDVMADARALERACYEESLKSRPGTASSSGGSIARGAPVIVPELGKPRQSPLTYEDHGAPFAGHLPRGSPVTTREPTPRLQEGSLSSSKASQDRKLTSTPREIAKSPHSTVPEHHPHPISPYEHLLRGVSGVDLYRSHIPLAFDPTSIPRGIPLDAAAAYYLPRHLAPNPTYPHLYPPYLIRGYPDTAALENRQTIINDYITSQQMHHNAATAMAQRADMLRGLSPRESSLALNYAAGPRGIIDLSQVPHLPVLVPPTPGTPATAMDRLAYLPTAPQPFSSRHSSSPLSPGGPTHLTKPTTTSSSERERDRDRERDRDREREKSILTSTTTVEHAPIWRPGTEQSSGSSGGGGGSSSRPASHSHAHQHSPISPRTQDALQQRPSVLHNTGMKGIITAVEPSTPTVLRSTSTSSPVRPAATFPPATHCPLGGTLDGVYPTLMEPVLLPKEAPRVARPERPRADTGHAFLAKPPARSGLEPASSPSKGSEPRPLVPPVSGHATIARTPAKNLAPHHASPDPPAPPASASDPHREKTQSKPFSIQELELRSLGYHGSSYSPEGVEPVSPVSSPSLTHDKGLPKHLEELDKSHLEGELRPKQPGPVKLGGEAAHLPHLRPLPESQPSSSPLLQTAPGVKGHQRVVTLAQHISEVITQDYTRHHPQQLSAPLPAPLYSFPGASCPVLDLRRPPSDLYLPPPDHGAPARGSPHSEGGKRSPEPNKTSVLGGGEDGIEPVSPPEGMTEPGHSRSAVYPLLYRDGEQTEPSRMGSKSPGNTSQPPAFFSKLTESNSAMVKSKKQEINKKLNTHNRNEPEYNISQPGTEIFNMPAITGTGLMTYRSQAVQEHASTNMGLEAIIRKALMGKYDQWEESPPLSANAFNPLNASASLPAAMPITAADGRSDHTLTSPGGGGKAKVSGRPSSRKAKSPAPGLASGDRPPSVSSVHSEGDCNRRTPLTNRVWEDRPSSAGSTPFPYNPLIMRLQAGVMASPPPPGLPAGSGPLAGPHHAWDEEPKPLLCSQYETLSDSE
UniProt Q9P2W9: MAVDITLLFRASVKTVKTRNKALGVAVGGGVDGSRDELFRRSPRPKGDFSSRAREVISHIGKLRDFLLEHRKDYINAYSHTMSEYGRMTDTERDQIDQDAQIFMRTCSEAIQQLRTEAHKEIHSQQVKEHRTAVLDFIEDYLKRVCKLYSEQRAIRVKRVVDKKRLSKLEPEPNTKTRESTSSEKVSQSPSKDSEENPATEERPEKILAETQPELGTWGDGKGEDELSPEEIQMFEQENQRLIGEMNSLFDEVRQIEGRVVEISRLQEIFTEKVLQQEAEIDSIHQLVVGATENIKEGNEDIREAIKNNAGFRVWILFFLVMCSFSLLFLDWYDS
UniProt P55209: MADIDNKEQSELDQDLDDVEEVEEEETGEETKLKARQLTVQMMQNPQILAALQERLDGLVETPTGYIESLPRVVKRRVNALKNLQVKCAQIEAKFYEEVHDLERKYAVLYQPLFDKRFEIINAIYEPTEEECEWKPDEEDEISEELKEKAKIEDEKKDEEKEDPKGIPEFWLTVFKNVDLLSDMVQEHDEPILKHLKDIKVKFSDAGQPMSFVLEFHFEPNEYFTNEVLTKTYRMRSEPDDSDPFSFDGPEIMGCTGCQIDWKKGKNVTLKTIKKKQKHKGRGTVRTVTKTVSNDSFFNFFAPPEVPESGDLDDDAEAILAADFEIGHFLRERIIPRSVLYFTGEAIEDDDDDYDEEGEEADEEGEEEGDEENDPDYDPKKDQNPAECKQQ

Target | NP40-soluble protein abundance (concentration: 0.1mM) | NP40-soluble protein abundance (concentration: 0.5mM) | NP40-soluble protein abundance (concentration: 1mM) | NP40-soluble protein abundance (concentration: 2mM) | NP40-soluble protein abundance (concentration: 4mM) | NP40-soluble protein abundance (concentration: 6mM) | NP40-soluble protein abundance (concentration: 8mM) | NP40-soluble protein abundance (concentration: 10mM)
C9J0Q5 and related entries (UniProt Q9Y618) | 1.04 ± 0.012 | 1.007 ± 0.0023 | 1.05 ± 0.055 | 1.04 ± 0.047 | 1.06 ± 0.079 | 1.06 ± 0.044 | 1.14 ± 0.13 | 1.1 ± 0.15
E5RJI7 and related entries (UniProt Q9BYD1) | 1.11 ± 0.21 | 1.16 ± 0.13 | 1.31 ± 0.29 | 1.34 ± 0.32 | 1.47 ± 0.44 | 1.35 ± 0.31 | 1.43 ± 0.37 | 1.31 ± 0.32
D6RF48 and related entries (UniProt Q9P2W9) | 1.05 ± 0.1 | 1.02 ± 0.11 | 1.1 ± 0.11 | 1.07 ± 0.14 | 1.1 ± 0.11 | 1.01 ± 0.074 | 1.07 ± 0.11 | 1.04 ± 0.12
B1AL05 and related entries (UniProt Q8N983) | 1.08 ± 0.21 | 1.07 ± 0.17 | 1.37 ± 0.45 | 1.75 ± 0.66 | 1.71 ± 0.69 | 1.57 ± 0.65 | 1.38 ± 0.47 | 1.59 ± 0.65
B7Z9C2 and related entries (UniProt P55209) | 0.943 ± 0.1 | 0.979 ± 0.083 | 0.929 ± 0.083 | 0.934 ± 0.093 | 0.924 ± 0.11 | 0.928 ± 0.073 | 0.946 ± 0.09 | 0.965 ± 0.1
